Earlier results as cited in patent US20200206351A1, “LOCAL ANESTHETIC SOLUTION FOR DENTAL AND/OR CONTRAST MEDIA USE” (priority 2014, published 2020).

Details: in solution

| Compound | sweetness perception raking |
| --- | --- |
| OC[C@@H](O)[C@@H](O)[C@H](O)[C@@H](O)CO [Sorbitol] | 0.6 times the sweetness of sucrose |
| O=C(CO)[C@@H](O)[C@H](O)[C@H](O)CO [fructose] | 1.7 times the sweetness of sucrose |
